Source: patent publication US8778643B2, “Methods for increasing lipid levels and producing triacylglycerols in algae” (priority 2012, dated 2014)
For some assays here: At least one compound was matched to its structure with a doubt left. Some results were stated once for a whole list of compounds, not compound by compound. Some compounds share one range, which may span the group rather than tell each member.

Columns and labels:
[1] = system: Trichophyton rubrum; conditions: cited from earlier work
[2] = molecular target: progesterone 15-alpha hydroxylase; conditions: cited from earlier work
[3] = system: microalgae; assay: Microplate assay (growth, Nile Red lipids), algae strain not stated; conditions: microplate screening; strain not given
[4] = system: Nannochloropsis oculata; conditions: microplate assay, multiple concentrations
[5] = system: Phaeodactylum tricornutum; assay: Microplate assay: growth (absorbance 680 nm) and intracellular lipids (Nile Red fluorescence); format: cell-based; conditions: multiple concentrations

## CC(=O)N1CCN(c2ccc(OC[C@H]3CO[C@](Cn4ccnc4)(c4ccc(Cl)cc4Cl)O3)cc2)CC1 (relative stereo) [Ketoconazole, cis-1-Acetyl-4-[4-[[2-(2,4-dichlorophenyl)-2-(1H-imidazol-1-ylmethyl)-1,3-dioxolan-4-yl]methoxy]phenyl]piperazine]
[1]
  IC50: 10 nM
[2]
  IC50: 0.369 nM

## CC1CC(C)C(=O)C(C(O)CC2CC(=O)NC(=O)C2)C1 (centres unmarked) [Cycloheximide, 3-[2-(3,5-Dimethyl-2-oxocyclohexyl)-2-hydroxyethyl]glutarimide]
[3]
  increase in (intracellular) lipid levels, Nile Red: 200-400%

## Cc1cc2c(C(C)C)c(O)c(O)c(C=O)c2c(O)c1-c1c(C)cc2c(C(C)C)c(O)c(O)c(C=O)c2c1O [Gossypol, 2,2′-bis-(Formyl-1,6,7-trihydroxy-5-isopropyl-3-methylnaphthalene)]
[4]
  effect on lipid production / lipid levels: no increase in lipids
[5]
  effect on lipid production / lipid levels: increase lipid
